According to PMC10437088:
No constants are given. Whether binding was seen depends on the method and setting. In cells and extracts the contact can be indirect. Some entries that bind do so weakly or less than the wild type.

Protein sequences, listed by entry. Tags and fused reporters are not part of them.
UniProt Q61025: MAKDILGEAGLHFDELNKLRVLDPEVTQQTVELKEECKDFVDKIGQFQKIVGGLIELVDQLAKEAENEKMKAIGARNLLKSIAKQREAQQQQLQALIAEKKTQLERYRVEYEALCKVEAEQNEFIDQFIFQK

T1: CABCOCO1 as used in the co-IP experiments of Supplementary Fig. 8A, B and D (mouse) (UniProt Q8CDT7)
T1 sequence: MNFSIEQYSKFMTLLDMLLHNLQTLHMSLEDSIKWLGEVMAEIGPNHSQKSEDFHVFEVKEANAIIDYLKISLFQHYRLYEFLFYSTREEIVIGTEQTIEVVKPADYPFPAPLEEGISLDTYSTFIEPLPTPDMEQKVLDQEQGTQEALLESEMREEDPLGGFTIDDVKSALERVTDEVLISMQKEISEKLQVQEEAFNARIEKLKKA


Target: T1, CABCOCO1 as used in the co-IP experiments of Supplementary Fig. 8A, B and D (mouse)
Assay: co-IP; co-IP experiments of Supplementary Fig. 8A, B and D; cells or tissue and tags not given

| binding | Molecule |
| --- | --- |
| binds | IFT20 as used in the co-IP experiment of Supplementary Fig. 8D (from UniProt Q61025 1-132) |
| binds | radial spoke head 1 homolog (RSPH1) (protein, UniProt Q8VIG3 1-301) MSDLGSEELEEEGENDLGEYEGERNEVGERHGHGKARLPNGDTYEGSYEFGKRHGQGTYKFKNGARYTGDYVKNKKHGQGTFIYPDGSRYEGEWADDQRHGQGVYYYVNNDTYTGEWFNHQRHGQGTYLYAETGSKYVGTWVHGQQEGAAELIHLNHRYQGKFMNKNPVGPGKYVFDIGCEQHGEYRLTDTERGEEEEEEETLVNIVPKWKALNITELALWTPTLSEEQPPPEGQGQEEPQGLTGVGDPSEDIQAEGFEGELEPRGADEDVDTFRQESQENSYDIDQGNLNFDEEPSDLQD |
